From patent US11104648B2, “Pyrazole derivative” (Zhejiang Research Institute of Chemical Industry Co., Ltd., priority 2018, dated 2021)
Some results were stated once for a whole list of compounds, not compound by compound.

Assays:
Format in all cases: in vivo
[1] = test system: Eggs of Tetranychus Cinnabarinus; experiment: Activity assay of eggs of Tetranychus cinnabarinus (spray method, ovicidal); conditions: concentration 5 mg/L, non-incubated eggs counted as dead
Method: According to the solubility of the test compound, the crude drug was dissolved in N N-dimethylformamide, and then prepared into a test solution of the desired concentration with 1‰ Tween 80 aqueous solution. The content of N. N-dimethylformamide in the solution should not exceed 10%.
Spray method. The broad bean leaves with petioles were cut and inserted into a bottle with water. A certain number of female mites were placed, 24h later, adult mites were removed, and spray treatment was performed in 24 h. The experiment was repeated three times, and a blank control was set, and placed to an observation room (26±2° C., humidity 70%˜80%, 16h light per day) for culture. When the blank control group was incubated, the results were investigated. The non-incubated ones were used as death for investigation.

[2] = test system: adult Tetranychus cinnabarinus; experiment: Activity assay of adult Tetranychus cinnabarinus (whole-plant spray on bean seedlings); conditions: concentration 2.5 mg/L; 48 h
Method: According to the solubility of the test compound, the crude drug was dissolved in N, N-dimethlfornamide, and then prepared into a test solution of the desired concentration with 1‰ Tween 80 aqueous solution. The content of N,N-dimethylformamide in the solution should not exceed 10%.
Two euphylla bean seedlings were taken, after inoculated with adult Tetranychus cinnabarinus and the base number was investigated, whole plants were sprayed with a hand-held sprayer. The experiment was repeated three times for each treatment, after treatment, placed in a standard observation room after treatment, to investigate the survival number of mites in 48 hand calculate the death rate.

[3] = test system: Tetranychus cinnabarinus Nymphs; experiment: Activity assay of Tetranychus cinnabarinus nymphs (spray on broad bean leaves); conditions: concentration 2.5 mg/L; 48 h
Method: According to the solubility of the test compound, the crude drug was dissolved in N, N-dimethylformamide, and then prepared into a test solution of the desired concentration with 1‰ Tween 80 aqueous solution. The content of N,N-dimethylformamide in the solution should not exceed 10%.
The broad bean leaves with petioles were cut and inserted into a small bottle with water. A certain number of brightly colored, active female adult mites were placed, 24h later, adult mites were removed, and leaves with insufficient eggs were removed. When eggs were hatched and grew into nymphs, spray treatment was performed. The experiment was repeated three times, and a blank control was set, and placed to an observation room (26±2° C., humidity 70%˜80%, 16h light per day) for culture. 48 h later, the results were investigated. The nymphs were gently touched during investigation, and if no response, they were regarded as deaths.

SMILES	ovicidal activity [1]	adult mite-killing activity [2]	nymph-killing activity [3]
CCC(OC(=O)CF)O/C(=C(/C#N)c1ccc(C(C)(C)C)cc1)c1cc(C)nn1C (racemic) [Compound 62]	≥ 90%	≥ 90%	≥ 95%
CCC(OC(=O)Cc1ccccc1)O/C(=C(/C#N)c1ccc(C(C)(C)C)cc1)c1cc(C)nn1C (racemic) [Compound 65]	≥ 90%	≥ 90%	≥ 95%
COC(=O)OC(C)O/C(=C(/C#N)c1ccc(C(C)(C)C)cc1)c1c(Cl)c(C)nn1C (racemic) [Compound 675]	≥ 90%	≥ 90%	≥ 95%
